# Measured data: PubChem BioAssay AID504791 (Drosophila RNAi Screening Center, 2011)
# Test: 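Genes whose knock-down strengthens or weakens small-RNA reporter silencing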 (primary screen)
# System: Drosophila S2-derived reporter cells
# Reagent: long dsRNA against Drosophila genes, about 150-250 ng dsRNA per well (siRNA assay); about 80-120 ng (miRNA assay)
# Duration: about 5 days (siRNA assay); about 4 days (miRNA assay)
# Conditions: copper sulfate induction of reporters: 25 µM (siRNA assay); 200 mM stated (miRNA assay), 1-2 days before reading
# Measured: 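Dual luciferase assay: Renilla to firefly signal ratio in each well, scaled to the mean ratio of its plate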
# Call rule: 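First-pass picks had plate-scaled ratios over 1.5 for the siRNA assay, over 1.6 for the miRNA assay, or under 0.6; two distinct dsRNAs had to score alike on retest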
# The screen tested about 23,000 reagents; this is a random part of those with a known target gene and a result. In the full data, 199 (0.86%) got an active call. 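Plate-scaled ratios behind the calls are not deposited; printed light signals are raw; many rows marked increased or decreased are still called inactive.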 The numbers tell different reagents against one gene apart. A plus sign joins genes that one reagent is predicted to hit. Reagent sequences are not shown. Not given: the direction of the score.
gene knocked down,dsRNA no.,stable siRNA reporter change,miRNA reporter change,"stable assay Renilla, run 1 (luminescence)","stable assay firefly, run 1 (luminescence)",Outcome
mip120 (Myb-interacting protein 120),1,,,6791,4.57e5,inactive
CG30283,1,,,7918,4.50e5,inactive
klu (klumpfuss),1,,,4963,3.27e5,inactive
CG10562,1,,,7906,6.34e5,inactive
CG13364,1,,,6371,3.94e5,inactive
CG13364,2,,,5539,4.19e5,inactive
Hexo1 (Hexosaminidase 1),1,,,6879,4.65e5,inactive
CG30039,1,,,9526,4.21e5,inactive
CG7950 + Rpp14a,1,,reporter ratio lowered past the hit cutoff,7726,4.70e5,inactive
CG11634,1,,,7519,3.25e5,inactive
CG30058 + CG34235 + CG34312,1,,,6526,4.25e5,inactive
CG16853,1,,,8139,3.83e5,inactive
CG15536,1,,,5118,3.58e5,inactive
CG15536,2,,,5242,5.89e5,inactive
Eaat1 (Excitatory amino acid transporter 1),1,,,8518,5.40e5,inactive
"Sr-CII (Scavenger receptor class C, type II)",1,,,6055,3.24e5,inactive
CG42319,1,,,5763,3.10e5,inactive
CG42319,2,,,5943,3.11e5,inactive
CG42319,3,,,3975,3.66e5,inactive
CG7065,1,,reporter ratio raised past the hit cutoff,11856,4.74e5,active
CG42539 (retired record),1,,,5047,3.10e5,inactive
CG42539 (retired record),2,,,8302,3.70e5,inactive
CG6788 + CR32496,1,,,9511,6.13e5,inactive
eIF3i (eukaryotic translation initiation factor 3 subunit i),1,,,8789,7.84e5,inactive
CG17549,1,,,42368,1.21e6,inactive
Gr9a (Gustatory receptor 9a),1,,,3628,3.46e5,inactive
CG13313,1,,,7815,5.29e5,inactive
l(2)k09848 (lethal (2) k09848),1,,,8807,1.63e6,inactive
Scr (Sex combs reduced),1,reporter ratio raised past the hit cutoff,,4991,1.86e5,inactive
Scr (Sex combs reduced),2,,reporter ratio raised past the hit cutoff,5330,2.70e5,inactive
Tango4 (Transport and Golgi organization 4),1,,,7444,3.84e5,inactive
gom (gomdanji),1,,,7291,4.39e5,inactive
CG6409,1,,,5130,3.93e5,inactive
CG6409,2,,,10794,6.98e5,inactive
CG31741,1,,,7376,4.43e5,inactive
CG3788,1,,,6699,3.59e5,inactive
CG15021,1,,,4480,3.95e5,inactive
Spg7 (Paraplegin),1,,,5642,3.17e5,inactive
RanBPM (Ran-binding protein M),1,,,7895,4.46e5,inactive
Lar (Leukocyte-antigen-related-like),1,,,6267,3.76e5,inactive
Lar (Leukocyte-antigen-related-like),2,,,78810,1.82e6,inactive
CG4701,1,,,6374,3.51e5,inactive
"betaNACtes3 (Nascent-associated complex beta-subunit-like, testis 3)",1,,,4783,3.68e5,inactive
fzy (fizzy),1,,,8047,4.46e5,inactive
CG5906,1,,,6350,3.98e5,inactive
CG31928,1,,,18910,2.22e5,inactive
ImpL1 (Ecdysone-inducible gene L1),1,,,7715,4.85e5,inactive
Reph (Regulator of eph expression),1,,,2.65e5,1.04e5,inactive
Reph (Regulator of eph expression),2,,,9757,6.60e5,inactive
Bmcp,1,,,7868,4.08e5,inactive
cutlet,1,,,4072,3.96e5,inactive
CG10749,1,,,6648,3.71e5,inactive
Cpr50Cb (Cuticular protein 50Cb),1,,,5716,2.70e5,inactive
CG13204,1,,,6454,3.24e5,inactive
PGRP-LD + Cralbp + Pmi,1,,,5723,3.34e5,inactive
CRMP (Collapsin Response Mediator Protein),1,,reporter ratio raised past the hit cutoff,5968,3.30e5,inactive
CRMP (Collapsin Response Mediator Protein),2,,,7291,4.40e5,inactive
Mettl3 (Methyltransferase like 3),1,,,6718,3.18e5,inactive
Drep2 (DNA fragmentation factor-related protein 2),1,,,8157,4.38e5,inactive
CG17597,1,,,7495,1.73e6,inactive
atos (atossa),1,,,5647,2.91e5,inactive
CheB74a (Chemosensory protein B 74a),1,,,5004,3.94e5,inactive
CG32137,1,,,6136,4.70e5,inactive
CG32137,2,,,5212,4.23e5,inactive
CG15894,1,,,5323,4.12e5,inactive
CG15894,2,,,5160,2.83e5,inactive
TwdlO (TweedleO),1,,,5994,5.44e5,inactive
CG32266,1,,,5702,4.05e5,inactive
CG8209,1,,,6011,4.58e5,inactive
hale (hale-bopp),1,,,8048,4.45e5,inactive
Exd2 (Exonuclease 3'-5' domain-containing 2),1,,,6387,3.69e5,inactive
Doc1 (Dorsocross1),1,,,5934,4.77e5,inactive
Hsp70Aa + Hsp70Ab,1,,,6243,4.17e5,inactive
Golgin84 (Golgin-84),1,,,7615,3.65e5,inactive
Socs44A (Suppressor of Cytokine Signaling at 44A),1,,,7170,4.69e5,inactive
mRpS5 (mitochondrial ribosomal protein S5),1,,,8727,5.15e5,inactive
CG3704,1,,,6063,3.60e5,inactive
CG3704,2,,,5619,3.12e5,inactive
CG14422,1,,,5900,4.18e5,inactive
ArfGAP1 (ADP-ribosylation factor GTPase activating protein 1),1,,,6628,4.20e5,inactive
CheB42b (Chemosensory protein B 42b),1,,,4039,4.12e5,inactive
CG34236,1,,,4171,2.94e5,inactive
Usp14 (Ubiquitin specific protease 14),1,,,8529,4.20e5,inactive
eater,1,,,3436,3.18e5,inactive
eater,2,,,10082,8.51e5,inactive
Sk1 (Sphingosine kinase 1),1,,,5120,4.51e5,inactive
SMC3 (Structural maintenance of chromosomes 3),1,,,4828,3.68e5,inactive
CG1116,1,,,6483,3.94e5,inactive
Sirt1 (Sirtuin 1),1,,,30980,4.35e5,inactive
Lcp3 (Larval cuticle protein 3),1,,,5748,3.02e5,inactive
MP1 (Melanization Protease 1),1,,,6192,5.17e5,inactive
cola + swif,1,,,6658,2.90e5,inactive
cola + swif,2,,,9634,5.89e5,inactive
bbg (big bang),1,,,7514,4.64e5,inactive
bbg (big bang),2,,,8533,3.53e5,inactive
CG14259,1,,,6758,4.08e5,inactive
nompA (no mechanoreceptor potential A),1,,,6108,3.50e5,inactive
CG15177,1,,,7265,4.37e5,inactive
dare + CG30033,1,,,3791,3.27e5,inactive
crc (cryptocephal),1,,,6882,2.72e5,inactive
Ns1 (Nucleostemin 1),1,,,8441,3.41e5,inactive
CG11149,1,,,7434,4.61e5,inactive
Cp7Fc (Chorion protein c at 7F),1,,,5334,3.11e5,inactive
Ir11a (Ionotropic receptor 11a),1,,,5363,4.91e5,inactive
CG42820 + CG42819,1,,,8006,4.30e5,inactive
CG42820 + CG42819,2,,,7067,3.90e5,inactive

An excerpt from above, reduced to “stable assay firefly, run 1 (luminescence)”.
CRMP (Collapsin Response Mediator Protein) #2: 4.40e5
Mettl3 (Methyltransferase like 3): 3.18e5
Drep2 (DNA fragmentation factor-related protein 2): 4.38e5
CG17597: 1.73e6
atos (atossa): 2.91e5
CheB74a (Chemosensory protein B 74a): 3.94e5
CG32137 #1: 4.70e5
CG32137 #2: 4.23e5
CG15894 #1: 4.12e5
CG15894 #2: 2.83e5
TwdlO (TweedleO): 5.44e5
CG32266: 4.05e5
CG8209: 4.58e5
hale (hale-bopp): 4.45e5
Exd2 (Exonuclease 3'-5' domain-containing 2): 3.69e5
Doc1 (Dorsocross1): 4.77e5
